From the supplement of paper PMC3334620
In all, about 33,000 sequences were measured (“E-score (-0.5 to 0.5)”: median about -0.016, highest 2% from about 0.3 on). This is one part of the list.

target: T1, Yer184c (UniProt P39961); test: PBM E-score (8-mer binding enrichment) (E-score (-0.5 to 0.5)); higher = stronger / more preferred TF binding; details: protein concentration: 100 nM; construct: GST-full length
T1 sequence: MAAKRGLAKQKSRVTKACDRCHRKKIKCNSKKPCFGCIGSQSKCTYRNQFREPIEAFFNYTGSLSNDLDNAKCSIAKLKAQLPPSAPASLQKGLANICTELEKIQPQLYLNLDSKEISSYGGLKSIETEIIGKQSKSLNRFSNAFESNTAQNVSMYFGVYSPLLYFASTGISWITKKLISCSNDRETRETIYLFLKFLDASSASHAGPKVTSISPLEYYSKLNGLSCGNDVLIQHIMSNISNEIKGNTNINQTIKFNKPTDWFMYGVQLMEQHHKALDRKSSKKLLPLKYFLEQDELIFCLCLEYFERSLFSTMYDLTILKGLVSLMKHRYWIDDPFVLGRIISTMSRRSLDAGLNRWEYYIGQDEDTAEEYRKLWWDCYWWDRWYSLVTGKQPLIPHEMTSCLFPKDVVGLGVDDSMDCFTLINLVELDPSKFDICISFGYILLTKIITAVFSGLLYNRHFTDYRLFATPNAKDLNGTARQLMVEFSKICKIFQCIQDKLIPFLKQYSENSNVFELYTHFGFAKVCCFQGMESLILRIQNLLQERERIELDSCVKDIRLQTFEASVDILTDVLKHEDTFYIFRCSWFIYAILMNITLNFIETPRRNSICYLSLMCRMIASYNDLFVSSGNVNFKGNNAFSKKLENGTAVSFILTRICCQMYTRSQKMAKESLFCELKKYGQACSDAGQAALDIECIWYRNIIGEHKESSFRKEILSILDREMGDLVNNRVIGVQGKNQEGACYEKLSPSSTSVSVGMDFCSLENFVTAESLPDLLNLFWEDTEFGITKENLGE
Procedure: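 Universal 'all 10-mer' protein binding microarrays (Agilent AMADID 015681) probed with GST-tagged S. cerevisiae TFs (full-length or DBD) made by in vitro transcription/translation (PURExpress), about 100-200 nM. Bound TF was detected with fluorescent anti-GST. Each ungapped 8-mer (which stands for itself and its reverse complement) is scored by the PBM enrichment score (E-score), a modified Wilcoxon-Mann-Whitney statistic from -0.5 to +0.5, computed with the Universal PBM Analysis Suite. Scale: above 0.35 generally sequence-specific binding.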

Sequence	PBM E-score
AAGGGGGA	-0.302
ATTGTATA	0.276
CGGAGGAA	0.175
TGGCAACA	-0.101
CAACAGGC	-0.0861
AATCCAGT	0.0724
TATTTCAA	0.28
CCTTAGGA	-0.032
AGGGCCCC	-0.342
CGCCCAGA	-0.215
TGAGCGCA	-0.177
ACCGTTTG	-0.0266
AGGGGTCC	-0.23
CCTGGCGA	-0.153
AAAGTTGC	-0.0435
TACCGTCA	0.0101
TAGCTCAA	0.0549
CCCAGCCC	-0.325
CCGCTAAA	0.00122
AAGTATCG	0.0788
GGATCCAA	0.104
GGAACGTA	-0.137
CGCGGAAG	0.138
GCATTGCC	-0.0318
AATAACTC	0.0529

Sequence	PBM E-score
ACCGGTGC	0.144
AATAGTTC	0.218
AAGGCGGT	-0.0822
AGGCTAGG	-0.359
TTGCACAA	0.0923
CGATCATC	-0.0604
AGCATGTG	-0.113
TACGCGAA	-0.0357
CATGATGA	0.0345
TCACGCCA	0.0416
GTCCAAGA	-0.172
AATAATAA	0.285
AAGTACCA	0.134
AGACTCCA	-0.253
TATAGGCA	-0.134
TAGTTGAA	0.103
AATTAAAT	0.118
CAGCCGAG	0.275
CCATTTCC	0.13
GCGTTTTA	0.146
CACGATAC	-0.122
CATTGGGC	-0.261
ATCCTTCA	0.022
GACTTCAC	-0.0636
GCGAGCGC	0.0998

Another view of some results above:
Sequence | PBM E-score
AATCCAGT | 0.0724
TGAGCGCA | -0.177
ACCGTTTG | -0.0266
AGGCTAGG | -0.359
TATAGGCA | -0.134

Remaining list, next part.

Sequence	PBM E-score
GCACTCAC	-0.144
GGCTTAAA	0.164
CTCTCAAA	0.089
TGAAGCCA	-0.0301
AAGCTGGT	-0.00269
CCACGTTC	-0.182
ATAACAGC	0.0641
ATTGCTTG	-0.0848
GGTAAGGA	-0.0168
CGTCCACC	-0.368
AAAACAAT	0.152
GTGCCAAC	-0.0189
TAAACTTA	0.0139
CTGTTTCA	0.00764
ATGGGAGA	-0.261
GGAGAACC	0.0393
AGGCGCGG	-0.071
AAAATCGT	0.0631
CAGAGCGC	-0.29
AGATCCAT	-0.105
CTGTCTCA	-0.117
CAATATCC	0.0849
AGGGCCAC	-0.263
AGTGCGGA	0.254
CCGGCTCC	0.293

Sequence	PBM E-score
GTTCGACA	0.0616
AGCTTTGG	-0.121
AAACAGAT	0.147
ACGTAATG	-0.0759
AGGGTCCC	-0.233
ATCCCTGA	-0.157
GCGAAGCC	-0.188
CCGAAAAG	0.31
AGTTGCCC	0.071
AGCCCACC	-0.228
GGGAAAAA	0.123
ACATTGAT	0.219
CGAGGAGA	-0.213
ACAGCGCG	-0.0632
ATCTGTGC	-0.072
AAGGCAAG	-0.25
AGGAAGTC	-0.203
AAGTCAGT	-0.0206
GCCCGACC	-0.116
AGTAATGA	0.0496
CGCGCCTC	0.013
AGTAGATA	0.237
ACACCAAA	0.178
GCTGGAAC	-0.0789
GCACGTGC	0.193

Sequence	PBM E-score
CGGATTCC	0.212
AGGTAACC	-0.106
CAGAGGTC	-0.25
GAGGGCGA	-0.28
CTGATTCC	0.0371
AAGCACGA	0.0242
CACGCCAC	-0.22
CGTCACGC	-0.051
AAAACAAA	0.259
GCATTTAC	-0.00693
AATAGTTG	0.0156
CCCGATCC	-0.106
CCAAACGC	-0.14
TGGGTAAA	-0.0372
AATGGGAG	-0.182
ACGTTGTG	0.0349
CGGCGACA	0.221
GAGAAATC	0.128
ACGTCTCC	-0.0377
GACTCCGA	-0.0256
GCCGACAA	0.239
ATCTTTGA	0.107
GTCTTGAA	0.096
AAGACTAG	-0.173
CTTCAGCA	-0.137

5 neighbouring records from above, for reference:
Sequence	PBM E-score
GAGAAATC	0.128
ACGTCTCC	-0.0377
GACTCCGA	-0.0256
GCCGACAA	0.239
ATCTTTGA	0.107

(further entries)

Sequence	PBM E-score
AAGCCCGT	-0.25
TAAAAACA	0.233
GCACAGCC	0.00143
ACCCGATG	0.0436
CTAGGGTA	-0.203
ACCTCGAC	0.119
GTTCCAAA	0.158
AATAGCAG	-0.148
AATCGGTG	-0.0533
ATTCTATC	0.0658
AGGACACC	0.0367
GATCATGC	-0.104
AGGTGGGA	-0.316
AATAAACA	0.123
GGCATATA	0.2
ACCGCTGA	0.0368
AAAGTGGG	-0.101
AATTATAT	0.234
AGAACAAA	0.349
CGCGCGAG	0.0573
CAGCTAGC	-0.152
TTTAGAAA	0.18
CGATCTCC	0.0574
CGGTTTAC	0.116
AGTCCTGA	-0.0683

Sequence	PBM E-score
GCTCTATA	-0.0239
AATGGACT	-0.174
CTGACTGA	-0.216
CGGAACCG	0.364
CGTAACCA	-0.0639
CCTTCCCC	-0.171
ACACCAGA	0.0624
CCAAGGGC	-0.205
AAACGTTA	0.134
CACGAGAG	-0.0761
AATGGGAT	-0.142
GACCTGAA	0.0833
CTAATCTC	0.063
TCAGCTAA	-0.0281
CGCATGTC	-0.211
GATACATA	0.153
CTGAGGCA	-0.107
AACGATAT	0.241
CGTAAAAG	0.154
CGATGCGC	-0.0469
CAACTCAA	0.179
AAAATCCG	0.259
